Reference: PMC4210090
These are yes or no findings as the source states them, for the method shown. For part of these data: Binding seen in cells or lysates may run through a third protein. Some entries that bind do so weakly or less than the wild type. Values belong to the substance of their own block, whether it stands above or below them.

Protein sequences, listed by entry. Tags and fused reporters are not part of them. Lines headed by an entry give the natural chain unless they say otherwise; changes in a name come on top. Residues count along the entry.
UniProt Q9UKV8: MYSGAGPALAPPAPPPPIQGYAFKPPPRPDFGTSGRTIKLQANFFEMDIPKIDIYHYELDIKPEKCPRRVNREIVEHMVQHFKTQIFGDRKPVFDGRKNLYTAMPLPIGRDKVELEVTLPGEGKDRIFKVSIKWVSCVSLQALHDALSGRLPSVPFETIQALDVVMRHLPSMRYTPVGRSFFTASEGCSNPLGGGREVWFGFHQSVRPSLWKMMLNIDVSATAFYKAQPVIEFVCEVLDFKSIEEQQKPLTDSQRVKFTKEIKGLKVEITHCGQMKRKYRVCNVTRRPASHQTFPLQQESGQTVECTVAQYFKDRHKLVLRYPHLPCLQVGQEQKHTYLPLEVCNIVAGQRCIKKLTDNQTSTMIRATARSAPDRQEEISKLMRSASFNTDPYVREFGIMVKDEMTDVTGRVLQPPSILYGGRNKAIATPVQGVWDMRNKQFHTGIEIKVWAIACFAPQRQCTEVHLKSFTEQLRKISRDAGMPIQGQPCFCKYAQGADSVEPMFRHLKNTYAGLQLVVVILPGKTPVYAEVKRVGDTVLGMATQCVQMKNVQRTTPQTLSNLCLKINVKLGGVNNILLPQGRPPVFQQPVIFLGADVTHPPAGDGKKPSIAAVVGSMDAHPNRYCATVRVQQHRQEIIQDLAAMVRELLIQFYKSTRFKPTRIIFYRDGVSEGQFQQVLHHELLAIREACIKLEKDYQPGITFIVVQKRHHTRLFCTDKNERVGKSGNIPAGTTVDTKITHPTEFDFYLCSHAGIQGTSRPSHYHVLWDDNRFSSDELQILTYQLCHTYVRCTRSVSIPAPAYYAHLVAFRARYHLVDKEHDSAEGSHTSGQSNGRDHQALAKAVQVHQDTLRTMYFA
GST fusion of the PIWI domain of Ago2: residues 517-818 of Q9UKV8
UniProt Q13596: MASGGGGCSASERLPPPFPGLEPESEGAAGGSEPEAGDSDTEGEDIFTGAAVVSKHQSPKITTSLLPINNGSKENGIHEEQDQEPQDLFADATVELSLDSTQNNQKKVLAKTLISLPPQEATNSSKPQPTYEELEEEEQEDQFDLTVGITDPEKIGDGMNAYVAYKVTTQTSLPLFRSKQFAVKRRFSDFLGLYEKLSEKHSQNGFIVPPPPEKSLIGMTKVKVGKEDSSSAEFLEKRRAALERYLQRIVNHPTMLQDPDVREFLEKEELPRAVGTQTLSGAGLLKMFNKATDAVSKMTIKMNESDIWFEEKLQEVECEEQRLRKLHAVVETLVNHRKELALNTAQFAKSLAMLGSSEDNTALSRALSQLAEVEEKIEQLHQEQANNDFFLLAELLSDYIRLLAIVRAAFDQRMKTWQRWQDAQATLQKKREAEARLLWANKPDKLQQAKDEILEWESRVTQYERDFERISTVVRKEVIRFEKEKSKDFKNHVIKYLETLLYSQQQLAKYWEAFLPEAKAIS
UniProt Q9QZ81: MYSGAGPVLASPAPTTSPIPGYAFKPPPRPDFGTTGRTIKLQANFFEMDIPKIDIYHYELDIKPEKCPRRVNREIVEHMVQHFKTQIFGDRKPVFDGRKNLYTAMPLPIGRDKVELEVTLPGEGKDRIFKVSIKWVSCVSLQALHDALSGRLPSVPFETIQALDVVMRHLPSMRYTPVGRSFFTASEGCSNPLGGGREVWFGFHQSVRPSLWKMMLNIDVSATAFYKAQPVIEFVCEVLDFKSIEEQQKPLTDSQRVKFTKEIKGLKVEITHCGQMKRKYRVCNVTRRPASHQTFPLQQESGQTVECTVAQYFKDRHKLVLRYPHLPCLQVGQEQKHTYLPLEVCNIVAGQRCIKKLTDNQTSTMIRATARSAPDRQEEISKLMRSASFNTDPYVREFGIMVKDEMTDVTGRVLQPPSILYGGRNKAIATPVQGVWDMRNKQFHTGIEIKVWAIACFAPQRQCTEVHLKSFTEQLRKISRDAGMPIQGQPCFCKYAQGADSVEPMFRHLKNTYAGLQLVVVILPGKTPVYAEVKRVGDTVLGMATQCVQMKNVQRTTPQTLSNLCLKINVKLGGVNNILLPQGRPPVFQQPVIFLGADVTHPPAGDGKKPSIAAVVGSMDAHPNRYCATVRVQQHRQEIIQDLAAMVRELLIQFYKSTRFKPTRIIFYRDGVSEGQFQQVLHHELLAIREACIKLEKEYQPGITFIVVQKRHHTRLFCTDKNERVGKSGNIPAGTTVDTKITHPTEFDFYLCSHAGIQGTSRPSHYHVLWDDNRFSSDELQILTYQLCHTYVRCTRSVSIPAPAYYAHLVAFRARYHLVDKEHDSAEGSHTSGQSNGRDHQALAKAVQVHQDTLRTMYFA

Assays:
[1] = molecular target: endogenous PICK1 (cultured neurons) (not stated (endogenous in cultured neurons)) (UniProt Q9EP80); assay: co-IP; lysates of cultured neurons immunoprecipitated with anti-PICK1 or control IgG, protein G-sepharose; washed in 0.5% Triton X-100, 150 mM NaCl, 20 mM HEPES pH 7.4; western blotting; also after TTX, Bicuculline or NMDA (chemical LTD) treatment, the interaction being decreased after chemical LTD
[2] = molecular target: GST fusion of the PIWI domain of Ago2 (UniProt Q9UKV8); assay: pull-down; GST fusions of Ago2 truncation mutants incubated with purified his6-PICK1; bound protein detected by western blotting; both purified
GFP-PICK1 = GFP-PICK1 (UniProt Q9EP80); assay: co-IP; HEK293 cell lysates incubated with GFP-trap agarose or blocked agarose beads as control; western blotting with anti-myc or anti-GFP
GST-PICK1 full-length = GST-PICK1 full-length (UniProt Q9EP80); assay: pull-down; GST fusion proteins incubated with HEK293 cell lysate expressing myc-Ago2; bound proteins detected by western blotting with anti-myc or by Coomassie staining; only the target purified
[3] = molecular target: GST-SNX1 (sorting nexin 1) (UniProt Q13596); assay: as above

binding [1]: binds
Substance: endogenous Ago2 (cultured neurons) (from UniProt Q9QZ81 1-860)

binding [2]: binds
Substance: his6-PICK1 (from UniProt Q9EP80 1-416)

binding (GFP-PICK1): binds
Substance: myc-Ago1 (from UniProt Q9UL18 1-857)

binding (GFP-PICK1): binds | binding (GST-PICK1 full-length): binds | binding [3]: no binding
Substance: myc-Ago2 (from UniProt Q9UKV8 1-859)
